In the test the target is T1, caveolin-1 (rat (endogenous in rat cerebral cortex)) (UniProt P41350).
T1 sequence: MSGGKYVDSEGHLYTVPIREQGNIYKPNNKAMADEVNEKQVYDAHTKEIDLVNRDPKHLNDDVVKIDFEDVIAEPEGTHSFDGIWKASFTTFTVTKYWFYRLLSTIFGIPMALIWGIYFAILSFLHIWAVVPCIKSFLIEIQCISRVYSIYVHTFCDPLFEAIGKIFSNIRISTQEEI
Kind of test: co-IP; endogenous caveolin-1 immunoprecipitated with anti-caveolin-1 antibody on protein G magnetic particles (Sileks kit) from the cytoplasmic fraction of rat penumbra tissue 24 h and 7 days after photothrombotic stroke and of the cortex of sham-operated rats; co-precipitated C-APP, N-APP or ADAM10 detected by immunoblotting; normal mouse IgG as negative control. (In general: Immunoblotting shows a protein as a band on a membrane.)

Protein sequences, listed by entry. Tags and fused reporters are not part of them. Lines headed by an entry give the natural chain unless they say otherwise; changes in a name come on top.
UniProt P08592: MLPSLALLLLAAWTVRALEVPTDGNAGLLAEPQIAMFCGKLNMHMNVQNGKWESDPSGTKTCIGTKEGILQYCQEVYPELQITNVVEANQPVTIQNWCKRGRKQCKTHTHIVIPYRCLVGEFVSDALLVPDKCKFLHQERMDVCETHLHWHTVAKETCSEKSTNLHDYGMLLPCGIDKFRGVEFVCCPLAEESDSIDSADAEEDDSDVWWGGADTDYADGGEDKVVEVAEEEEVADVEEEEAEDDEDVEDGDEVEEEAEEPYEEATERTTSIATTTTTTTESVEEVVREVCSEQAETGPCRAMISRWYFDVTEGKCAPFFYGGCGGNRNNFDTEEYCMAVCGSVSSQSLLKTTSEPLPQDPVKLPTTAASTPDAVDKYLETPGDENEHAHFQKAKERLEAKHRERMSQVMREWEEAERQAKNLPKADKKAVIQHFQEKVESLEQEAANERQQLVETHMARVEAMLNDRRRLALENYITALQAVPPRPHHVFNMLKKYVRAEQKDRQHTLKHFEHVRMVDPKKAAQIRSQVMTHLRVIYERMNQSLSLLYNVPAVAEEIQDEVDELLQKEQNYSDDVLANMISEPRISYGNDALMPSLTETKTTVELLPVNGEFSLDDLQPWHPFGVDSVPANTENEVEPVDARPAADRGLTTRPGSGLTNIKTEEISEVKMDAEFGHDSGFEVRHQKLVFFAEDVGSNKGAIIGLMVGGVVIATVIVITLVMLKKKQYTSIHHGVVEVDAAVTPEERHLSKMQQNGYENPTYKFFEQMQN

These are yes or no findings as the source states them, for the method shown. Binding seen in cells or lysates may run through a third protein. A result given as binding can be weak or reduced; the word gives no strength.

Turning to “N-terminal fragment of amyloid precursor protein (from UniProt P08592) (domain or fragment)”, the binding entry is on record as “binds”.

As for “C-terminal fragment of amyloid precursor protein (rat (endogenous in rat cerebral cortex)) (domain or fragment)”, the binding entry is “binds”.

Values taken from PMC9599860.
